Data as given in PMC5509742.
No constants are given. Whether binding was seen depends on the method and setting. Some results given as binding are weak or reduced against the parent protein; the word gives no strength.

Biological target: catalytic domain of PhaC from Chromobacterium sp. USM2 (residues 175-567) (Chromobacterium sp. USM2) (UniProt E1APK1)
Experiment: SEC; Superdex 200 (10/30), 30 µM protein in the absence or presence of 0.5 mM DL-3HB-CoA, 10 mM Tris-HCl (pH 8.0), 100 mM NaCl, 3 mM β-ME, 4 °C; monomer to dimer; both purified

binding: binds weakly
Substance: catalytic domain of PhaC from Chromobacterium sp. USM2 (residues 175-567) (from UniProt E1APK1 175-567) (domain or fragment)
